The values that follow come from US6664231B1 (priority 1993, dated 2003).

Strings that start with PEPTIDE1 are HELM notation: dots part the residues, brackets hold end groups and non-standard residues. Square brackets hold non-standard residues; d marks the D form. Phe(4-NH2) = Nc1ccc(C[C@H](N)C(=O)O)cc1; 1Nal = N[C@@H](Cc1cccc2ccccc12)C(=O)O; d1Nal = N[C@H](Cc1cccc2ccccc12)C(=O)O; Tle = CC(C)(C)[C@H](N)C(=O)O; βAla = NCCC(=O)O; Sar = CNCC(=O)O

The nature of one data set: general procedure: Fmoc solid-phase peptide synthesis; polystyrene resin, 1% DVB, Fmoc-Rink amide linker, 0.44 mmoles/gram; DIC/HOBt and HBTU/HOBt/DIEA (double coupling). The conditions noted are these: whole synthesis, HPLC, scale of the general procedure between 0.1 grams and 5 grams of starting resin.
As to H-KSKVGALIQLFHKK-NH2, the “purity (crude or final not stated)” value amounted to 99%.

Still in this data set, the particulars now being: whole synthesis, scale of the general procedure between 0.1 grams and 5 grams of starting resin.
Take H-KSKVGLLIQLFHKK-NH2: the “crude HPLC purity” value is given as 33%. The same measure, in the same setting: then H-KSKVLWLIQLFHKK-NH2, with 74%; and H-KSKVGWLIQLWHKK-NH2, with 58%. Still for that read-out and setting: with “H-KSKVG[βAla]LIQLFHKK-NH2 (SMILES CC[C@H](C)[C@H](NC(=O)[C@H](CC(C)C)NC(=O)CCNC(=O)CNC(=O)[C@@H](NC(=O)[C@H](CCCCN)NC(=O)[C@H](CO)NC(=O)[C@@H](N)CCCCN)C(C)C)C(=O)N[C@@H](CCC(N)=O)C(=O)N[C@@H](CC(C)C)C(=O)N[C@@H](Cc1ccccc1)C(=O)N[C@@H](Cc1c[nH]cn1)C(=O)N[C@@H](CCCCN)C(=O)N[C@@H](CCCCN)C(N)=O)” the figure was 68%; with “H-KSKVGWLI[Phe(4-NH2)]LF[1Nal]KK-NH2 (SMILES CC[C@H](C)[C@H](NC(=O)[C@H](CC(C)C)NC(=O)[C@H](Cc1c[nH]c2ccccc12)NC(=O)CNC(=O)[C@@H](NC(=O)[C@H](CCCCN)NC(=O)[C@H](CO)NC(=O)[C@@H](N)CCCCN)C(C)C)C(=O)N[C@@H](Cc1ccc(N)cc1)C(=O)N[C@@H](CC(C)C)C(=O)N[C@@H](Cc1ccccc1)C(=O)N[C@@H](Cc1cccc2ccccc12)C(=O)N[C@@H](CCCCN)C(=O)N[C@@H](CCCCN)C(N)=O)”, 28%; with H-KSKVKVAIQLFHKK-NH2, 30%.

Turning to “PEPTIDE1{[dK].[dK].[dH].[dF].[dL].[dQ].[dI].[dL].[dW].[dK].[am]}$$$$V2.0”, the “crude HPLC purity” value is 69% and the “final HPLC purity” value is on record as 99%. Regarding PEPTIDE1{K.K.W.L.I.Q.L.K.[am]}$$$$V2.0, the “crude HPLC purity” value worked out at 59%. On the same count and under the same terms, with “H-KSKVG[Tle]LIQLFHKK-NH2 (SMILES CC[C@H](C)[C@H](NC(=O)[C@H](CC(C)C)NC(=O)[C@@H](NC(=O)CNC(=O)[C@@H](NC(=O)[C@H](CCCCN)NC(=O)[C@H](CO)NC(=O)[C@@H](N)CCCCN)C(C)C)C(C)(C)C)C(=O)N[C@@H](CCC(N)=O)C(=O)N[C@@H](CC(C)C)C(=O)N[C@@H](Cc1ccccc1)C(=O)N[C@@H](Cc1c[nH]cn1)C(=O)N[C@@H](CCCCN)C(=O)N[C@@H](CCCCN)C(N)=O)” the figure was 62%; with H-KSKVGWLIELFHKK-NH2, 49%. Regarding H-KKWLIQLKKK-NH2, the “crude HPLC purity” value is on record as 67% and the “final HPLC purity” value is recorded as 98%. “H-KSKVG[d1Nal]LIQLFHKK-NH2 (SMILES CC[C@H](C)[C@H](NC(=O)[C@H](CC(C)C)NC(=O)[C@@H](Cc1cccc2ccccc12)NC(=O)CNC(=O)[C@@H](NC(=O)[C@H](CCCCN)NC(=O)[C@H](CO)NC(=O)[C@@H](N)CCCCN)C(C)C)C(=O)N[C@@H](CCC(N)=O)C(=O)N[C@@H](CC(C)C)C(=O)N[C@@H](Cc1ccccc1)C(=O)N[C@@H](Cc1c[nH]cn1)C(=O)N[C@@H](CCCCN)C(=O)N[C@@H](CCCCN)C(N)=O)”: the “crude HPLC purity” value came to 28%. Consider H-KSKVGWLILLFHKKKSKVGWLILLFHKK-NH2, for which the “crude HPLC purity” value is recorded as 32%.

Regarding PEPTIDE1{K.W.L.I.Q.L.K.[am]}$$$$V2.0, the “crude HPLC purity” value worked out at 63%.

As to “H-KSKVG[Phe(4-NH2)]LIQLFHKK-NH2 (SMILES CC[C@H](C)[C@H](NC(=O)[C@H](CC(C)C)NC(=O)[C@H](Cc1ccc(N)cc1)NC(=O)CNC(=O)[C@@H](NC(=O)[C@H](CCCCN)NC(=O)[C@H](CO)NC(=O)[C@@H](N)CCCCN)C(C)C)C(=O)N[C@@H](CCC(N)=O)C(=O)N[C@@H](CC(C)C)C(=O)N[C@@H](Cc1ccccc1)C(=O)N[C@@H](Cc1c[nH]cn1)C(=O)N[C@@H](CCCCN)C(=O)N[C@@H](CCCCN)C(N)=O)”, the “crude HPLC purity” value is recorded as 47%. On the same count and under the same terms, with H-KSKVGWLIQWFHKK-NH2 the figure was 57%. On the same count and under the same terms, with H-KSKVGWLIYLFHKK-NH2 the figure was 54%; with “H-KSKV[Phe(4-NH2)]WLI[Phe(4-NH2)]LFHKK-NH2 (SMILES CC[C@H](C)[C@H](NC(=O)[C@H](CC(C)C)NC(=O)[C@H](Cc1c[nH]c2ccccc12)NC(=O)[C@H](Cc1ccc(N)cc1)NC(=O)[C@@H](NC(=O)[C@H](CCCCN)NC(=O)[C@H](CO)NC(=O)[C@@H](N)CCCCN)C(C)C)C(=O)N[C@@H](Cc1ccc(N)cc1)C(=O)N[C@@H](CC(C)C)C(=O)N[C@@H](Cc1ccccc1)C(=O)N[C@@H](Cc1c[nH]cn1)C(=O)N[C@@H](CCCCN)C(=O)N[C@@H](CCCCN)C(N)=O)”, 66%; with H-KSKVGWLIQLFHKA-NH2, 70%. Turning to H-KSKVGWAIQLFHKK-NH2, the “crude HPLC purity” value is given as 51%. On the same count and under the same terms, with H-SVHVHISKSKVGWLIQLFHKKIESALRNK-NH2 the figure was 26%. Same read-out and setting: with H-KSKVGWLIQLFLKK-NH2 the figure was 63%. Turning to “151-161, K @ 151 (V), P @ 152 (G) (KPWLIQLFHKK)”, the “final HPLC purity” value is recorded as 98%.

For “H-KK[Phe(4-NH2)]LIQLKK-NH2 (SMILES CC[C@H](C)[C@H](NC(=O)[C@H](CC(C)C)NC(=O)[C@H](Cc1ccc(N)cc1)NC(=O)[C@H](CCCCN)NC(=O)[C@@H](N)CCCCN)C(=O)N[C@@H](CCC(N)=O)C(=O)N[C@@H](CC(C)C)C(=O)N[C@@H](CCCCN)C(=O)N[C@@H](CCCCN)C(N)=O)”, the “crude HPLC purity” value amounted to 90% and the “final HPLC purity” value turned out to be 98%. Consider H-KSKVGWLIRLFHKK-NH2, for which the “crude HPLC purity” value was found to be 42%. In the case of H-WLIQL-NH2, the “crude HPLC purity” value worked out at 63%. The same measure, in the same setting: with “H-KSKVG[Sar]LIQLFHKK-NH2 (SMILES CC[C@H](C)[C@H](NC(=O)[C@H](CC(C)C)NC(=O)CN(C)C(=O)CNC(=O)[C@@H](NC(=O)[C@H](CCCCN)NC(=O)[C@H](CO)NC(=O)[C@@H](N)CCCCN)C(C)C)C(=O)N[C@@H](CCC(N)=O)C(=O)N[C@@H](CC(C)C)C(=O)N[C@@H](Cc1ccccc1)C(=O)N[C@@H](Cc1c[nH]cn1)C(=O)N[C@@H](CCCCN)C(=O)N[C@@H](CCCCN)C(N)=O)” the figure was 88%. Consider H-KSKVGALIQLFHKK-NH2, for which the “crude HPLC purity” value came out at 64%. On the same count and under the same terms, with H-QLFHKK-NH2 the figure was 73%. On to “K - K - Q - L - L - L - L - K - K (KKQLLLLKK)”, for which the “final HPLC purity” value is listed as 99%.

On to “H-KSKVG[1Nal]LIQLWHKK-NH2 (SMILES CC[C@H](C)[C@H](NC(=O)[C@H](CC(C)C)NC(=O)[C@H](Cc1cccc2ccccc12)NC(=O)CNC(=O)[C@@H](NC(=O)[C@H](CCCCN)NC(=O)[C@H](CO)NC(=O)[C@@H](N)CCCCN)C(C)C)C(=O)N[C@@H](CCC(N)=O)C(=O)N[C@@H](CC(C)C)C(=O)N[C@@H](Cc1c[nH]c2ccccc12)C(=O)N[C@@H](Cc1c[nH]cn1)C(=O)N[C@@H](CCCCN)C(=O)N[C@@H](CCCCN)C(N)=O)”, for which the “crude HPLC purity” value was determined as 50% and the “final HPLC purity” value is on record as 97%. For the substance H-KSKVGVLIQLFHKK-NH2, the “crude HPLC purity” value is 68%. The same measure, in the same setting: then H-KSKVKFLIKLFHKK-NH2, with 36%; and “H-KSKVGWLIQLF[1Nal]K[1Nal]-NH2 (SMILES CC[C@H](C)[C@H](NC(=O)[C@H](CC(C)C)NC(=O)[C@H](Cc1c[nH]c2ccccc12)NC(=O)CNC(=O)[C@@H](NC(=O)[C@H](CCCCN)NC(=O)[C@H](CO)NC(=O)[C@@H](N)CCCCN)C(C)C)C(=O)N[C@@H](CCC(N)=O)C(=O)N[C@@H](CC(C)C)C(=O)N[C@@H](Cc1ccccc1)C(=O)N[C@@H](Cc1cccc2ccccc12)C(=O)N[C@@H](CCCCN)C(=O)N[C@@H](Cc1cccc2ccccc12)C(N)=O)”, with 53%.
